Some entries repeat one wording, which the source may state once for all of them.
Legend:
[1] = SWIR imaging (above 1000 nm) of vials of purified fluorescent proteins, signal per concentration; conditions: for signal per conc.: emission above 1000 nm, counts normalised to excitation power [mW/cm^2], exposure time [ms], concentration [mu M], slope of linear fit; for emission beyond 1000 nm: excitation 470 nm, 565 nm, 660 nm respectively, InGaAs camera, 1000 nm long-pass
[2] = Fluorescent protein signal in context of autofluorescence of the lower back of mice; set-up: species or system mouse; conditions: above 1000 nm; for autofluorescence equiv. conc.: inverse of signal over background, minimal protein concentration matching autofluorescence of mouse lower back

Substance	signal per concentration compared to sfGFP ([1]; above 1000 nm)	signal per concentration compared to tdTomato ([1]; above 1000 nm)	signal per conc. [1]	emission beyond 1000 nm [1]	signal over concentration compared to tdTomato, after considering autofluorescence [2]	signal over concentration relative to sfGFP, after considering autofluorescence (factor) [2]	autofluorescence equiv. conc. [2]
IRFP720: near-infrared fluorescent protein derived from Rhodopseudomonas palustris, e.g. SEQ ID NO: 59 (also SEQ ID NO: 3, 25)	three-orders of magnitude higher	factor nine higher	15.5 ± 0.1	exhibit emission beyond 1000 nm	factor three more	670	0.0747 ± 0.02
sfGFP: fluorescent protein sfGFP having e.g. SEQ ID NO: 61	–	–	0.0147 ± 0.0007	exhibit emission beyond 1000 nm	–	–	49.4 ± 10.0

Source: patent US12618846B2, “Method and device for imaging fluorescent proteins in near- and short-wave infrared” (HELMHOLTZ ZENTRUM MÜNCHEN—DEUTSCHES FORSCHUNGSZENTRUM FÜR …, priority 2019, dated 2026)
